Assay [1] has as its target chromatin factor CBX1 (mouse (endogenous in ESC)) (UniProt P83917). The experiment in a line: co-IP.
Assay [2] concerns the target T1, ESRRB (mouse (endogenous in ESC)) (UniProt Q61539).
T1 sequence: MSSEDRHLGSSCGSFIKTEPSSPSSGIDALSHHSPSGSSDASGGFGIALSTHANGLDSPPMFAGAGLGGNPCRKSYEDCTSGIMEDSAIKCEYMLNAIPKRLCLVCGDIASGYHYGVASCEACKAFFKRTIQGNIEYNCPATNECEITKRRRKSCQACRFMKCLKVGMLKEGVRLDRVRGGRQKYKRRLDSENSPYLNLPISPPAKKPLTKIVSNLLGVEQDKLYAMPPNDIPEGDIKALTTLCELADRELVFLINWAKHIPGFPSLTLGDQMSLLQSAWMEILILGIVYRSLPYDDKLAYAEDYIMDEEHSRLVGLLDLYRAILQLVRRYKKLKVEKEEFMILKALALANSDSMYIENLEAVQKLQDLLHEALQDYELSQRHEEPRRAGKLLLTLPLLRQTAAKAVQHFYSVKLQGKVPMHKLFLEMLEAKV
Put plainly: co-IP.

Protein sequences, listed by entry. Tags and fused reporters are not part of them.
UniProt P83917: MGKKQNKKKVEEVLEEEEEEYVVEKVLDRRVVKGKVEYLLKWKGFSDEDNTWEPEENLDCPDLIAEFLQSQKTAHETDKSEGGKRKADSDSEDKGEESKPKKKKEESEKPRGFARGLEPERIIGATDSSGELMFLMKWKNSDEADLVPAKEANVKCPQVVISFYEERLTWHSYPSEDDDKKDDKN
UniProt P70398: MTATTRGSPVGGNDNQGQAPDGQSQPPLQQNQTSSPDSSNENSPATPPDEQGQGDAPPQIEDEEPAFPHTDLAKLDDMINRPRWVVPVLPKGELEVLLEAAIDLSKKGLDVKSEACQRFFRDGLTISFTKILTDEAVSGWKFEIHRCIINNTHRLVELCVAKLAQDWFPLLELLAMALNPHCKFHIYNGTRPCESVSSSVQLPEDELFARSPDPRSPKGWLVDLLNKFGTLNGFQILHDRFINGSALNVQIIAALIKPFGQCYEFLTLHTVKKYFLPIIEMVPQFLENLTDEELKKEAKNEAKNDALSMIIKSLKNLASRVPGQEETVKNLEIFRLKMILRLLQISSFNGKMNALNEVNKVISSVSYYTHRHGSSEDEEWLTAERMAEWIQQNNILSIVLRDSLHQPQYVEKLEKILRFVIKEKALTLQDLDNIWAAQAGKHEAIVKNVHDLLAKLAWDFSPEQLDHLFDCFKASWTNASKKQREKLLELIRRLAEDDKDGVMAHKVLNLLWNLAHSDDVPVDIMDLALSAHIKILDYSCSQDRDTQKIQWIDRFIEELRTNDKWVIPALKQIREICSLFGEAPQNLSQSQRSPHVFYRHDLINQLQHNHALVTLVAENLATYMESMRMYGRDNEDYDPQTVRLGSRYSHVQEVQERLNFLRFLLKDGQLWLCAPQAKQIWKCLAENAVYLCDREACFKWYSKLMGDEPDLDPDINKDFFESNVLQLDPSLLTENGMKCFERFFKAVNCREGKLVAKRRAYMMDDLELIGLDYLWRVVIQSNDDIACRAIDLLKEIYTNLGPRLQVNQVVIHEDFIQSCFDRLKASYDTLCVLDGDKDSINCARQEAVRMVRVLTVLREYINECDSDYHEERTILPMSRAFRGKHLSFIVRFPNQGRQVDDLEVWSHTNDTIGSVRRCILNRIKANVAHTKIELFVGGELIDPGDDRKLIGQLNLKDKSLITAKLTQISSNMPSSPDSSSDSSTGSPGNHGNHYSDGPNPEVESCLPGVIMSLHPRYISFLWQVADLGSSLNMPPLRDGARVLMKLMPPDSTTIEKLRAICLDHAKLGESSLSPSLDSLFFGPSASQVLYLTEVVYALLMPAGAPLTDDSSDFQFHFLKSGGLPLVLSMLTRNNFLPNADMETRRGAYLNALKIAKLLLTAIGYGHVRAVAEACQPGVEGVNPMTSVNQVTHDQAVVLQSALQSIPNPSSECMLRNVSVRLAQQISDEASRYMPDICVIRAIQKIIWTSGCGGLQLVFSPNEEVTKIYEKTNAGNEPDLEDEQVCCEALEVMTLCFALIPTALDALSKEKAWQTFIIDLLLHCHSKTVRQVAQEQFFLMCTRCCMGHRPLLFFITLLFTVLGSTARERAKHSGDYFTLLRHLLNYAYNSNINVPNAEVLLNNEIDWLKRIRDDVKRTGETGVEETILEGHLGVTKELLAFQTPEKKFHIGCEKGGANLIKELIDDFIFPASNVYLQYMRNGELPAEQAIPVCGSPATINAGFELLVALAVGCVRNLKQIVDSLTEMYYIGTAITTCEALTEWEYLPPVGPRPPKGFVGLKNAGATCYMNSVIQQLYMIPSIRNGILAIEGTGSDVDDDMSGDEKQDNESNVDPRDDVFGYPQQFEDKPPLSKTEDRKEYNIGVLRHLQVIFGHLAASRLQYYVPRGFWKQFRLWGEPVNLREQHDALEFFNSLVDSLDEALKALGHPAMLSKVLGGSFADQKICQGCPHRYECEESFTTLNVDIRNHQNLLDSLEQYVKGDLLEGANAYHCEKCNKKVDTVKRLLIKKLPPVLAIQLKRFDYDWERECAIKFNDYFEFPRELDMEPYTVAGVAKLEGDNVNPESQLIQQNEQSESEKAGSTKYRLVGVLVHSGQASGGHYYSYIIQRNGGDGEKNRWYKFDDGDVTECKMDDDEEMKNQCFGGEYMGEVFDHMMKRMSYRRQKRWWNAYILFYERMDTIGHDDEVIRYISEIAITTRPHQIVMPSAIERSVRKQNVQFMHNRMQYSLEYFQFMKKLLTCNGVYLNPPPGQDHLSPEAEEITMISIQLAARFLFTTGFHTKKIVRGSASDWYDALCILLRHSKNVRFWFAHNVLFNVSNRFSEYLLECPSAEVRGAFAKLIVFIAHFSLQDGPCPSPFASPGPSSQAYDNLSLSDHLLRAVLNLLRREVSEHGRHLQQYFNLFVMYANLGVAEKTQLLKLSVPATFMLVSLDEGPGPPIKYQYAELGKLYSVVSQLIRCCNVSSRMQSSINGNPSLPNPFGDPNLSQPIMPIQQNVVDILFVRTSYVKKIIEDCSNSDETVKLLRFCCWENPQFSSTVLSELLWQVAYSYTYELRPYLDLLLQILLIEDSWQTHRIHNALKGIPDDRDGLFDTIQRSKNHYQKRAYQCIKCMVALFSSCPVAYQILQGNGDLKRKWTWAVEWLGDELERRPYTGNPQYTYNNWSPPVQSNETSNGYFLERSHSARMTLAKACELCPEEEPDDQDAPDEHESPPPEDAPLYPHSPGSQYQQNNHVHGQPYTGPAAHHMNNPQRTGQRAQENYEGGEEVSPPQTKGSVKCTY

These are yes or no findings as the source states them, for the method shown. In cells and extracts the contact can be indirect. Some results given as binding are weak or reduced against the parent protein; the word gives no strength.

“Deubiquitinase USP9X (from UniProt P70398 1-2559) (enzyme)”: the binding entry in assay [1] and in assay [2] was “binds” throughout.
